Values quoted from earlier work, collected in patent US11628197B2, “Methods and compounds for treating effects of COVID-19 disease” (priority 2020, dated 2023).
At least one compound was matched to its structure with a doubt left.

How the values were obtained:
[1] = tested on: COVID-19; conditions: 237 subjects, Wang and colleagues, completed May 2020
[2] = tested on: COVID-19; conditions: ACTT-1, 1063 subjects, vs. 15 days on Placebo
[3] = tested on: COVID-19; conditions: Spinner and colleagues, 105 hospitals, 584 subjects, Active N=193 vs. Placebo N=200
[4] = tested on: COVID-19 disease; conditions: early studies of antiviral treatment

CCC(CC)COC(=O)[C@H](C)N[P@](=O)(OC[C@H]1O[C@@](C#N)(c2ccc3c(N)ncnn23)[C@H](O)[C@@H]1O)Oc1ccccc1 [Remdesivir]
Effect in COVID-19 [1]: no significant effect | Discharge [2]: 11 days | Primary and Secondary End Point Analysis, Active vs. Placebo [3]: no difference | Impact in early studies [4]: failed to make the impact expected
